According to the supplement of paper PMC12823440, “Inhibitors supercharge kinase turnover through native proteolytic circuits” (Nature, 2025):
This is one part of the list. Hit calls seldom repeat between salt and free forms of one compound.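 In K562 cells expressing nanoluciferase-fused kinases, luminescence was recorded at 4 h intervals between 2 and 18 h, normalized as percent of control with DMSO at 100% and a positive control at 0%. A significant (2 sigma) signal drop marks a time point as decreased. The authors' rule for a hit is not shown and takes in more than the number of time points.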

Chains of the proteins cited; added tags and fusions are not shown. Lines headed by an entry give the natural chain unless they say otherwise; changes in a name come on top.
UniProt Q9Y616: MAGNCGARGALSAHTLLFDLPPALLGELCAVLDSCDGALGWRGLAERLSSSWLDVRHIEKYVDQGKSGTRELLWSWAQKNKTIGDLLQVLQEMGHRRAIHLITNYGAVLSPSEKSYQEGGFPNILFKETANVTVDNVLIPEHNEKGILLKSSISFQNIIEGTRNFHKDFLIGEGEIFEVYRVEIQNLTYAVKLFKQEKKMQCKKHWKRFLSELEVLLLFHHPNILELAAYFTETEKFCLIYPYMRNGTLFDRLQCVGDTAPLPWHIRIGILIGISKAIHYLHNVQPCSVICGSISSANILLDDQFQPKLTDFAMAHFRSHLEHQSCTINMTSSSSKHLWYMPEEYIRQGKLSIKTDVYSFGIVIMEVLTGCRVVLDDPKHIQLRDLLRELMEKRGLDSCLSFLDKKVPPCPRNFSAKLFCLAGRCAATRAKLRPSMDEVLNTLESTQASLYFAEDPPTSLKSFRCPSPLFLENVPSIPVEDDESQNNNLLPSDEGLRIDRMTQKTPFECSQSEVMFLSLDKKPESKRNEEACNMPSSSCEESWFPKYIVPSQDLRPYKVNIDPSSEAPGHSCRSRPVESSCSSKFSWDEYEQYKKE
UniProt P23458: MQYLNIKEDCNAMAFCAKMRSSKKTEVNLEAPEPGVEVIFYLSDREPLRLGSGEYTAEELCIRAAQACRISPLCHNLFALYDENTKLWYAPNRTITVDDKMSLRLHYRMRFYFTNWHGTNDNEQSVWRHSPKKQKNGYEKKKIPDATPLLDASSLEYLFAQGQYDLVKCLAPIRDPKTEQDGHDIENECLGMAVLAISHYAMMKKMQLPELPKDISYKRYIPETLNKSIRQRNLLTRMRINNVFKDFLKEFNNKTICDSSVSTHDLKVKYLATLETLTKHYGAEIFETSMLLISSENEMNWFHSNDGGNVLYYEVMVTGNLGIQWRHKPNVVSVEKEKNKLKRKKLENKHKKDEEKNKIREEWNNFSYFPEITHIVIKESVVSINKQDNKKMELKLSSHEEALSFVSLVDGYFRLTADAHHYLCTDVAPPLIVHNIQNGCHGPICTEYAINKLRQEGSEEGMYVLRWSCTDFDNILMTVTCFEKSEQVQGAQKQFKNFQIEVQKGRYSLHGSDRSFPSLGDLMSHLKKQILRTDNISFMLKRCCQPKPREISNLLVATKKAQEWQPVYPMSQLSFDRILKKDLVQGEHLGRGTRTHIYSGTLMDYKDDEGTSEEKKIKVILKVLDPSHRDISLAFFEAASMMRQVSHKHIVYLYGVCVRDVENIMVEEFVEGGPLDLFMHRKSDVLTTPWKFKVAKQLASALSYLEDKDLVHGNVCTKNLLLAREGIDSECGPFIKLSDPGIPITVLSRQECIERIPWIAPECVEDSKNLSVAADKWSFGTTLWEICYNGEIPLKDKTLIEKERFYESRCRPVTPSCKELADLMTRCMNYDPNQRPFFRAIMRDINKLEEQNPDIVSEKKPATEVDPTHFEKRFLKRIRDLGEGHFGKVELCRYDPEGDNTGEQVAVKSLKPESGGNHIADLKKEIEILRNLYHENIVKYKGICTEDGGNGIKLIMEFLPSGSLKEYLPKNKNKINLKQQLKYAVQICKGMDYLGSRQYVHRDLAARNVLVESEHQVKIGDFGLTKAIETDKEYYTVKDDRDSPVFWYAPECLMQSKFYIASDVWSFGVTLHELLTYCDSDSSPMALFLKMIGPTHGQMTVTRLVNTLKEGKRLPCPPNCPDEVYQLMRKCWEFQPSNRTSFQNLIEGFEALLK
UniProt P53671: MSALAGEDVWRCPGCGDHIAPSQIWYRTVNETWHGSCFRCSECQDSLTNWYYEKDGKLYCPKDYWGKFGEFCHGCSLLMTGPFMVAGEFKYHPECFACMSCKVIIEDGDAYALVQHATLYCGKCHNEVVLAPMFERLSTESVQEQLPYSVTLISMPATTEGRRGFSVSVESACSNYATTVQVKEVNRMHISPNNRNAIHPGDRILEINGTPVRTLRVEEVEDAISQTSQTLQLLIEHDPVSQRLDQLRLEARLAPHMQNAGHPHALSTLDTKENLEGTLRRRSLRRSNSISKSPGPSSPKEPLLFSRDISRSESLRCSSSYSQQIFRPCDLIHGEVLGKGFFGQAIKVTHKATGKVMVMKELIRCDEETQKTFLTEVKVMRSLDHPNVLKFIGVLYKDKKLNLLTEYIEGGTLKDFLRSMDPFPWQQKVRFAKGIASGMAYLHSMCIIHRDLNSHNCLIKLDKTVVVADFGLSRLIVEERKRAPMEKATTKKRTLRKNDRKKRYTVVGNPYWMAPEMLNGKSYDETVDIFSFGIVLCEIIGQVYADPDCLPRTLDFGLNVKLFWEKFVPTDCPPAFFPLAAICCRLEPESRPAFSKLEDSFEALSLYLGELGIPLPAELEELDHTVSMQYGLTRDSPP
UniProt P07948: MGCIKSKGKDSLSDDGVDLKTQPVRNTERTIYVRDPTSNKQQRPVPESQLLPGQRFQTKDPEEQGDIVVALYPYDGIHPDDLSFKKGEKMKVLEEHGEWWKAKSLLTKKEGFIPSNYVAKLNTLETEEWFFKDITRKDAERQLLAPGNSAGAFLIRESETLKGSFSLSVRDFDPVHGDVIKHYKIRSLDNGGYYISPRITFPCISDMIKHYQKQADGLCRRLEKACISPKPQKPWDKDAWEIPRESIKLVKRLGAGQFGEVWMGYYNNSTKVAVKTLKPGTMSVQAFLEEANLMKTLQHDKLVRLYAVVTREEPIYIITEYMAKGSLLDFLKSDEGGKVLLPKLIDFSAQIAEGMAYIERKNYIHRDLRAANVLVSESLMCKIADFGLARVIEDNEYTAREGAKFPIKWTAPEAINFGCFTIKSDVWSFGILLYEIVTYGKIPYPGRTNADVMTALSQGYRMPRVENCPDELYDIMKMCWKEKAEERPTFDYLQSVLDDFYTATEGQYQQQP
UniProt P49137, whole entry, looked up: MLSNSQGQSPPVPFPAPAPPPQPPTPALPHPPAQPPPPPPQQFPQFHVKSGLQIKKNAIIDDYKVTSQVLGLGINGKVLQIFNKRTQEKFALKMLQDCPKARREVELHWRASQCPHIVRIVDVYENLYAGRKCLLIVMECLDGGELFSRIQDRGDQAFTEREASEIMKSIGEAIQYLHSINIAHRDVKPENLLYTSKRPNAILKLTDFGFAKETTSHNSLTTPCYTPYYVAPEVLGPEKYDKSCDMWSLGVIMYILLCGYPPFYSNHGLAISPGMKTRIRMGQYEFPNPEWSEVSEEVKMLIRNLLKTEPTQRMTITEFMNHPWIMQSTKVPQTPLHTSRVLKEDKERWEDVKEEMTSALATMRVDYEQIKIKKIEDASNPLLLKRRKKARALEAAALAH
UniProt Q9BUB5: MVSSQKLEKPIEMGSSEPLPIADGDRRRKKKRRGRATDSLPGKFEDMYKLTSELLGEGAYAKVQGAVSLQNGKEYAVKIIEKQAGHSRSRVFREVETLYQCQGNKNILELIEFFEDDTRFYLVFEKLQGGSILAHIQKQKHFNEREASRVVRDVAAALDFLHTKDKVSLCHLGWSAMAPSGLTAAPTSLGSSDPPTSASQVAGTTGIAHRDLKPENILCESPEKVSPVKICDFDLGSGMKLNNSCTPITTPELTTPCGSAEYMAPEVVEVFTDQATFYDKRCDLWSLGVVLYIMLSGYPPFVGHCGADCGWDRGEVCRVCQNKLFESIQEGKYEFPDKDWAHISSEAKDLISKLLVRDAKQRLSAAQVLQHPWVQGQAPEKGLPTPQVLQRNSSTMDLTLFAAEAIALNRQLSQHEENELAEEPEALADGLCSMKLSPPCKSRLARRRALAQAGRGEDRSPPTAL
UniProt Q16620, whole entry, looked up: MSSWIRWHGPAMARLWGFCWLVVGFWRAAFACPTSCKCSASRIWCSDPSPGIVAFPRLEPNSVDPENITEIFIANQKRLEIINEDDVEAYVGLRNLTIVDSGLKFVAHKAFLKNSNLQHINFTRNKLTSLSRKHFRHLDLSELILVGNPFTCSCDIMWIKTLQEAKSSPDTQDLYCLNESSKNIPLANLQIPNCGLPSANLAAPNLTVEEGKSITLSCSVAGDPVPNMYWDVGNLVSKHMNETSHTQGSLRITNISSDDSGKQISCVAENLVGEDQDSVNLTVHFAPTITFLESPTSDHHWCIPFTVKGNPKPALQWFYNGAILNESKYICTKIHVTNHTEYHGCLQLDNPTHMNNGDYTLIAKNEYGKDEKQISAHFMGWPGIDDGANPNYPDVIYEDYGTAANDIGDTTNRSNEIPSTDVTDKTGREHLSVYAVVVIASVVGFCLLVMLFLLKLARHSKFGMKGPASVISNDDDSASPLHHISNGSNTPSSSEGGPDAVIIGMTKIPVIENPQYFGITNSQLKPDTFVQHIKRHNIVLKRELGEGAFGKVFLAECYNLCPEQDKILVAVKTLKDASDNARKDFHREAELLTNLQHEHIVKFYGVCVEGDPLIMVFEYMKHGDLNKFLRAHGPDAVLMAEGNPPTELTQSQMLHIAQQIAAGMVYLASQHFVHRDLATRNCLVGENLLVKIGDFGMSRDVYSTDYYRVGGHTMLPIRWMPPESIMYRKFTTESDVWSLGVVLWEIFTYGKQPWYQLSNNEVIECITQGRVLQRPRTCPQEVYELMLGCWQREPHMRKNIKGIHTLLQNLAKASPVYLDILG
UniProt Q16288, whole entry, looked up: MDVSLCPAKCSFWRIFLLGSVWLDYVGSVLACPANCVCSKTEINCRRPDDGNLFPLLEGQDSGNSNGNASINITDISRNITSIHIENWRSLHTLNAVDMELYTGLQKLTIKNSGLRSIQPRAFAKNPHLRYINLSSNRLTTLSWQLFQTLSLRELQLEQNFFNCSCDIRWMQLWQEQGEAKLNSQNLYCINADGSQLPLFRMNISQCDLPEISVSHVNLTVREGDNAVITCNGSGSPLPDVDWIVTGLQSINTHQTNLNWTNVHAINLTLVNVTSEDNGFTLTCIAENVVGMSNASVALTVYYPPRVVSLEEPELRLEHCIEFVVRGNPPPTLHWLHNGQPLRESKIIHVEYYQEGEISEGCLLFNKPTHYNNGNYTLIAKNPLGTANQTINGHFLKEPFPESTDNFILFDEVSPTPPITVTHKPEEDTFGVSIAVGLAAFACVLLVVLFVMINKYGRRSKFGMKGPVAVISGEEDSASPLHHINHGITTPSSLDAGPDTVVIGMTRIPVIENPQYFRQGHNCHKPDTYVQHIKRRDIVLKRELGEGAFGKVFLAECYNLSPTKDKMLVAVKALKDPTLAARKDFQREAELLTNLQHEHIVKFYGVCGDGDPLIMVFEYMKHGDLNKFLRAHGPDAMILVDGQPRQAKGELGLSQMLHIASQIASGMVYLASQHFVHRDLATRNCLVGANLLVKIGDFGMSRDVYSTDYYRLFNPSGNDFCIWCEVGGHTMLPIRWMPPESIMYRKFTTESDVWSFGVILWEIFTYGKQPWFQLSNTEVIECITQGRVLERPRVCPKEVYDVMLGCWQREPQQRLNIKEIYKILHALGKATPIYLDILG
UniProt O96013: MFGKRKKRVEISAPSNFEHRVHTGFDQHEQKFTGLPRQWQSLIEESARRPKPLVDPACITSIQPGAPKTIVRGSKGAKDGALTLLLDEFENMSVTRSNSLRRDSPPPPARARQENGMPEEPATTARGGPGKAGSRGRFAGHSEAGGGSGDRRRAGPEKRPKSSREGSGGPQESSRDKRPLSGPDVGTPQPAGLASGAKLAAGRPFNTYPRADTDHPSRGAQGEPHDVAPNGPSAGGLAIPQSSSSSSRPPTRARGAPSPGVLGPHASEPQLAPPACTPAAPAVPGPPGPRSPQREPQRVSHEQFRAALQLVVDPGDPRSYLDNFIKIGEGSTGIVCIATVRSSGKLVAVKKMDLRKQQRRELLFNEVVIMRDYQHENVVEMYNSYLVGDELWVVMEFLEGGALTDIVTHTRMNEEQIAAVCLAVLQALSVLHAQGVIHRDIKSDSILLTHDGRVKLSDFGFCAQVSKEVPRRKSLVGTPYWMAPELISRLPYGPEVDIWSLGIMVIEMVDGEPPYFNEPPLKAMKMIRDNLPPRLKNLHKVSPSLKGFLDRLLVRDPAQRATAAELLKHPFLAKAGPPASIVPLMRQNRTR
UniProt Q15118, whole entry, looked up: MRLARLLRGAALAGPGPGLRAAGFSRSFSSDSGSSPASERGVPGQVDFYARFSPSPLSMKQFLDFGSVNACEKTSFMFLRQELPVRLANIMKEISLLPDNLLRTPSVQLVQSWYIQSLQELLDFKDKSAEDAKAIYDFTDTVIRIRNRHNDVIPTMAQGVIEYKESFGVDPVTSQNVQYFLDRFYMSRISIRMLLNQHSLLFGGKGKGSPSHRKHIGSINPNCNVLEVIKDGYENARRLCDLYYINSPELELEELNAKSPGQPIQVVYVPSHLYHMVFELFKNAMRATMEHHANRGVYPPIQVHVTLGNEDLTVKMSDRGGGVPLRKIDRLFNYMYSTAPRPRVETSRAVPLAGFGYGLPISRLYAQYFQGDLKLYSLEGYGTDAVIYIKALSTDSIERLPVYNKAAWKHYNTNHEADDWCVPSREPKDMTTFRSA

How the values were obtained:
Experiment in all cases: kinase-Nluc reporter destabilization hit call (1 = scored as downregulated) (binary); higher = compound decreases kinase abundance
Details in all cases: K562; 2-18 h
IRAK3 = IRAK3 (UniProt Q9Y616)
JAK1 = JAK1 (UniProt P23458)
LCK = LCK (UniProt P06239)
LIMK1 = LIMK1 (UniProt P53667)
LIMK2 = LIMK2 (UniProt P53671)
LMTK2 = LMTK2 (UniProt Q8IWU2)
LYN = LYN (UniProt P07948)
MAP2K1 = MAP2K1 (UniProt Q02750)
MAP2K2 = MAP2K2 (UniProt P36507)
MAP4K2 = MAP4K2 (UniProt Q12851)
MAPK1 = MAPK1 (UniProt P28482)
MAPK4 = MAPK4 (UniProt P31152)
MAPKAPK2 = MAPKAPK2 (UniProt P49137)
MKNK1 = MKNK1 (UniProt Q9BUB5)
NTRK2 = NTRK2 (UniProt Q16620)
NTRK3 = NTRK3 (UniProt Q16288)
PAK4 = PAK4 (UniProt O96013)
PBK = PBK (UniProt Q96KB5)
PDGFRB = PDGFRB (UniProt P09619)
PDK1 = PDK1 (UniProt Q15118)

Measured: kinase-Nluc reporter destabilization hit call

C=CC(=O)Nc1cc(C)ccc1Nc1nc(Nc2cc(OC)ncc2C)ncc1C(F)(F)F (10 µM)
inactive: IRAK3 = 0 | JAK1 = 0 | LCK 0 | LIMK1 = 0 | LIMK2 = 0 | LMTK2 = 0 | LYN 0 | MAP2K1 = 0 | MAP2K2 = 0 | MAP4K2 = 0 | MAPK1 = 0 | MAPK4 = 0 | MAPKAPK2 = 0 | MKNK1 = 0 | NTRK2 = 0 | NTRK3 = 0 | PAK4 = 0 | PBK 0 | PDGFRB 0 | PDK1 = 0

Cc1cc(Nc2ncnc3ccc(NC4=NC(C)(C)CO4)cc23)ccc1Oc1ccn2ncnc2c1 [Tucatinib (hemiethanolate)] (2.5 µM)
inactive: IRAK3 = 0 | JAK1 = 0 | LCK 0 | LIMK1 = 0 | LIMK2 = 0 | LMTK2 = 0 | LYN 0 | MAP2K1 = 0 | MAP2K2 = 0 | MAP4K2 = 0 | MAPK1 = 0 | MAPK4 = 0 | MAPKAPK2 = 0 | MKNK1 = 0 | NTRK2 = 0 | NTRK3 = 0 | PAK4 = 0 | PBK 0 | PDGFRB 0 | PDK1 = 0

CCS(=O)(=O)Nc1ccc2[nH]c(O)c(C(=Nc3ccc(CN4CCCCC4)cc3)c3ccccc3)c2c1 [Hesperadin] (2.5 µM)
inactive: IRAK3 = 0 | JAK1 = 0 | LCK 0 | LIMK1 = 0 | LIMK2 = 0 | LMTK2 = 0 | LYN 0 | MAP2K1 = 0 | MAP2K2 = 0 | MAP4K2 = 0 | MAPK1 = 0 | MAPK4 = 0 | MAPKAPK2 = 0 | MKNK1 = 0 | NTRK2 = 0 | NTRK3 = 0 | PAK4 = 0 | PBK 0 | PDGFRB 0 | PDK1 = 0

Cc1[nH]c(/C=C2\C(=O)Nc3ccccc32)c(C)c1CCC(=O)O [Orantinib] (10 µM)
inactive: IRAK3 = 0 | JAK1 = 0 | LCK 0 | LIMK1 = 0 | LIMK2 = 0 | LMTK2 = 0 | LYN 0 | MAP2K1 = 0 | MAP2K2 = 0 | MAP4K2 = 0 | MAPK1 = 0 | MAPK4 = 0 | MAPKAPK2 = 0 | MKNK1 = 0 | NTRK2 = 0 | NTRK3 = 0 | PAK4 = 0 | PBK 0 | PDGFRB 0 | PDK1 = 0

CNC(=O)c1cc(COc2nnc(Nc3ccc(Cl)cc3)c3ccoc23)ccn1 [Telatinib] (10 µM)
inactive: IRAK3 = 0 | JAK1 = 0 | LCK 0 | LIMK1 = 0 | LIMK2 = 0 | LMTK2 = 0 | LYN 0 | MAP2K1 = 0 | MAP2K2 = 0 | MAP4K2 = 0 | MAPK1 = 0 | MAPK4 = 0 | MAPKAPK2 = 0 | MKNK1 = 0 | NTRK2 = 0 | NTRK3 = 0 | PAK4 = 0 | PBK 0 | PDGFRB 0 | PDK1 = 0

Cc1cccc(Oc2cnc(=O)[nH]c2)c1 [Tolimidone] (10 µM)
inactive: IRAK3 = 0 | JAK1 = 0 | LCK 0 | LIMK1 = 0 | LIMK2 = 0 | LMTK2 = 0 | LYN 0 | MAP2K1 = 0 | MAP2K2 = 0 | MAP4K2 = 0 | MAPK1 = 0 | MAPK4 = 0 | MAPKAPK2 = 0 | MKNK1 = 0 | NTRK2 = 0 | NTRK3 = 0 | PAK4 = 0 | PBK 0 | PDGFRB 0 | PDK1 = 0

FC(F)c1nc2ccccc2n1-c1nc(N2CCOCC2)nc(N2CCOCC2)n1 (2 µM)
inactive: IRAK3 = 0 | JAK1 = 0 | LCK 0 | LIMK1 = 0 | LIMK2 = 0 | LMTK2 = 0 | LYN 0 | MAP2K1 = 0 | MAP2K2 = 0 | MAP4K2 = 0 | MAPK1 = 0 | MAPK4 = 0 | MAPKAPK2 = 0 | MKNK1 = 0 | NTRK2 = 0 | NTRK3 = 0 | PAK4 = 0 | PBK 0 | PDGFRB 0 | PDK1 = 0

COc1cc(Nc2ncc(F)c(Nc3ccc4c(n3)N(COP(=O)(O)O)C(=O)C(C)(C)O4)n2)cc(OC)c1OC [Fostamatinib Disodium] (10 µM)
inactive: IRAK3 = 0 | JAK1 = 0 | LCK 0 | LIMK1 = 0 | LIMK2 = 0 | LMTK2 = 0 | LYN 0 | MAP2K1 = 0 | MAP2K2 = 0 | MAP4K2 = 0 | MAPK1 = 0 | MAPK4 = 0 | MAPKAPK2 = 0 | MKNK1 = 0 | NTRK2 = 0 | NTRK3 = 0 | PAK4 = 0 | PBK 0 | PDGFRB 0 | PDK1 = 0

CNC(=O)c1ccc(C)c(-n2c(C)cc(OCc3ccc(F)cc3F)c(Br)c2=O)c1 (10 µM)
inactive: IRAK3 = 0 | JAK1 = 0 | LCK 0 | LIMK1 = 0 | LIMK2 = 0 | LMTK2 = 0 | LYN 0 | MAP2K1 = 0 | MAP2K2 = 0 | MAP4K2 = 0 | MAPK1 = 0 | MAPK4 = 0 | MAPKAPK2 = 0 | MKNK1 = 0 | NTRK2 = 0 | NTRK3 = 0 | PAK4 = 0 | PBK 0 | PDGFRB 0 | PDK1 = 0

Cc1ccc2nc(NCCN)c3ncc(C)n3c2c1 (2.5 µM)
inactive: IRAK3 = 0 | JAK1 = 0 | LCK 0 | LIMK1 = 0 | LIMK2 = 0 | LMTK2 = 0 | LYN 0 | MAP2K1 = 0 | MAP2K2 = 0 | MAP4K2 = 0 | MAPK1 = 0 | MAPK4 = 0 | MAPKAPK2 = 0 | MKNK1 = 0 | NTRK2 = 0 | NTRK3 = 0 | PAK4 = 0 | PBK 0 | PDGFRB 0 | PDK1 = 0

FC(F)(c1ccc2ncccc2c1)c1nnc2ccc(-c3ccncc3)nn12 (10 µM)
inactive: IRAK3 = 0 | JAK1 = 0 | LCK 0 | LIMK1 = 0 | LIMK2 = 0 | LMTK2 = 0 | LYN 0 | MAP2K1 = 0 | MAP2K2 = 0 | MAP4K2 = 0 | MAPK1 = 0 | MAPK4 = 0 | MAPKAPK2 = 0 | MKNK1 = 0 | NTRK2 = 0 | NTRK3 = 0 | PAK4 = 0 | PBK 0 | PDGFRB 0 | PDK1 = 0

O=C1NC(=O)/C(=C/c2ccc3nccnc3c2)S1 (10 µM)
inactive: IRAK3 = 0 | JAK1 = 0 | LCK 0 | LIMK1 = 0 | LIMK2 = 0 | LMTK2 = 0 | LYN 0 | MAP2K1 = 0 | MAP2K2 = 0 | MAP4K2 = 0 | MAPK1 = 0 | MAPK4 = 0 | MAPKAPK2 = 0 | MKNK1 = 0 | NTRK2 = 0 | NTRK3 = 0 | PAK4 = 0 | PBK 0 | PDGFRB 0 | PDK1 = 0

Reprinted at random: two entries already listed
COc1cc(Nc2ncc(F)c(Nc3ccc4c(n3)N(COP(=O)(O)O)C(=O)C(C)(C)O4)n2)cc(OC)c1OC [Fostamatinib Disodium] (10 µM)
inactive: IRAK3 = 0 | JAK1 = 0 | LCK 0 | LIMK1 = 0 | LIMK2 = 0 | LMTK2 = 0 | LYN 0 | MAP2K1 = 0 | MAP2K2 = 0 | MAP4K2 = 0 | MAPK1 = 0 | MAPK4 = 0 | MAPKAPK2 = 0 | MKNK1 = 0 | NTRK2 = 0 | NTRK3 = 0 | PAK4 = 0 | PBK 0 | PDGFRB 0 | PDK1 = 0

FC(F)(c1ccc2ncccc2c1)c1nnc2ccc(-c3ccncc3)nn12 (10 µM)
inactive: IRAK3 = 0 | JAK1 = 0 | LCK 0 | LIMK1 = 0 | LIMK2 = 0 | LMTK2 = 0 | LYN 0 | MAP2K1 = 0 | MAP2K2 = 0 | MAP4K2 = 0 | MAPK1 = 0 | MAPK4 = 0 | MAPKAPK2 = 0 | MKNK1 = 0 | NTRK2 = 0 | NTRK3 = 0 | PAK4 = 0 | PBK 0 | PDGFRB 0 | PDK1 = 0

Carrying on.

COc1ccc(-c2ccc3c(N4CCOCC4)nc(N4C[C@@H](C)O[C@@H](C)C4)nc3n2)cc1CO (2.5 µM)
inactive: IRAK3 = 0 | JAK1 = 0 | LCK 0 | LIMK1 = 0 | LIMK2 = 0 | LMTK2 = 0 | LYN 0 | MAP2K1 = 0 | MAP2K2 = 0 | MAP4K2 = 0 | MAPK1 = 0 | MAPK4 = 0 | MAPKAPK2 = 0 | MKNK1 = 0 | NTRK2 = 0 | NTRK3 = 0 | PAK4 = 0 | PBK 0 | PDGFRB 0 | PDK1 = 0

Cn1nccc1Nc1nccc(-c2ccn([C@H](CO)c3ccc(Cl)c(F)c3)c(=O)c2)n1 [Ravoxertinib] (10 µM)
inactive: IRAK3 = 0 | JAK1 = 0 | LCK 0 | LIMK1 = 0 | LIMK2 = 0 | LMTK2 = 0 | LYN 0 | MAP2K1 = 0 | MAP2K2 = 0 | MAP4K2 = 0 | MAPK1 = 0 | MAPK4 = 0 | MAPKAPK2 = 0 | MKNK1 = 0 | NTRK2 = 0 | NTRK3 = 0 | PAK4 = 0 | PBK 0 | PDGFRB 0 | PDK1 = 0

C=CC(=O)Nc1cccc(Nc2nc(Nc3ccc(NC4CN(CCF)C4)cc3OC)ncc2C(F)(F)F)c1 (2.5 µM)
inactive: IRAK3 = 0 | JAK1 = 0 | LCK 0 | LIMK1 = 0 | LIMK2 = 0 | LMTK2 = 0 | LYN 0 | MAP2K1 = 0 | MAP2K2 = 0 | MAP4K2 = 0 | MAPK1 = 0 | MAPK4 = 0 | MAPKAPK2 = 0 | MKNK1 = 0 | NTRK2 = 0 | NTRK3 = 0 | PAK4 = 0 | PBK 0 | PDGFRB 0 | PDK1 = 0

COc1ccc(OC)c(C2C(C#N)=C(N)Oc3n[nH]c(-c4ccc5ccccc5c4)c32)c1 (stereo not given) (10 µM)
inactive: IRAK3 = 0 | JAK1 = 0 | LCK 0 | LIMK1 = 0 | LIMK2 = 0 | LMTK2 = 0 | LYN 0 | MAP2K1 = 0 | MAP2K2 = 0 | MAP4K2 = 0 | MAPK1 = 0 | MAPK4 = 0 | MAPKAPK2 = 0 | MKNK1 = 0 | NTRK2 = 0 | NTRK3 = 0 | PAK4 = 0 | PBK 0 | PDGFRB 0 | PDK1 = 0

C[C@@H]1COCCN1c1cc(C2([S@@](C)(=N)=O)CC2)nc(-c2ccnc3[nH]ccc23)n1 [(S)-Ceralasertib] (10 µM)
inactive: IRAK3 = 0 | JAK1 = 0 | LCK 0 | LIMK1 = 0 | LIMK2 = 0 | LMTK2 = 0 | LYN 0 | MAP2K1 = 0 | MAP2K2 = 0 | MAP4K2 = 0 | MAPK1 = 0 | MAPK4 = 0 | MAPKAPK2 = 0 | MKNK1 = 0 | NTRK2 = 0 | NTRK3 = 0 | PAK4 = 0 | PBK 0 | PDGFRB 0 | PDK1 = 0

Cc1nc(-c2cn3c(n2)-c2ccc(-c4cnn(C(C)(C)C(N)=O)c4)cc2OCC3)n(C(C)C)n1 [Taselisib] (10 µM)
inactive: IRAK3 = 0 | JAK1 = 0 | LCK 0 | LIMK1 = 0 | LIMK2 = 0 | LMTK2 = 0 | LYN 0 | MAP2K1 = 0 | MAP2K2 = 0 | MAP4K2 = 0 | MAPK1 = 0 | MAPK4 = 0 | MAPKAPK2 = 0 | MKNK1 = 0 | NTRK2 = 0 | NTRK3 = 0 | PAK4 = 0 | PBK 0 | PDGFRB 0 | PDK1 = 0
